According to US11724980B2, “Quinones having high capacity retention for use as electrolytes in aqueous redox flow batteries” (President and Fellows of Harvard College, priority 2018, dated 2023):

Tests used:
[1] = Full cell cycling against potassium ferro/ferricyanide posolyte; details: for Cell Voltage: OCV at 50% SOC from full-cell tests, potassium ferrocyanide-based posolyte
Description: Full cell cycling (i.e. with a ferro/ferricyanide-based posolyte) was performed with the same flow cell hardware but with a FUMASEP® E-620(K) membrane due to its high conductivity and low permeability of DBEAQ and ferricyanide compared to other membranes. For studies at pH 14, the posolyte volume was 30 mL, and its composition, when assembled, was 0.20 M potassium ferrocyanide, 0.08 M potassium ferricyanide, and 1 M KOH. The negolyte was prepared by dissolving 0.1 M 2,6-DBEAQ in its oxidized form in 1.2 M KOH solution, resulting in 0.1 M 2,6-DBEAQ, 1.2 M K+, and 1 M OH^− electrolyte solution. For studies at pH 12, both electrolytes comprised 10 mM OH^−; the pH was checked both with a pH meter and pH paper and adjusted where necessary. For all full cell studies, the negolyte was assembled in the fully discharged state. Galvanostatic cycling was performed at ±0.1 A/cm^2 at room temperature, with voltage limits of 0.6 and 1.4 V. To obtain the polarization curves, the cell was first charged to the desired state of charge and then polarized via linear sweep voltammetry at a rate of 100 mV/s. […] Electrochemical impedance spectroscopy (EIS) was performed at SOCs between 10 and 100% at open-circuit potential with a 10 mV perturbation and with frequency ranging from 1 to 300,000 Hz.
In order to avoid temporal variations in accessible capacity during full cell cycling caused by changes in membrane resistance^8, each galvanostatic half-cycle was finished with a potential hold at the potential limit (1.4 V after charge, 0.6 V after discharge), until the magnitude of the current density fell below 2 mA/cm^2. Over a 5-day test period, a capacity fade rate of 0.05%/day or 0.001%/cycle was observed (FIG. 21A). […] It has been shown that capacity retention rates using both cycling protocols yield virtually identical results.^8
A flow battery was constructed using a solution of 2,6-DBEAQ produced as described in Example 1. Cell hardware from Fuel Cell Tech. (Albuquerque, N. Mex.) was used to assemble a zero-gap flow cell configuration, similar to a previous report (supplemental information in the paper by K. Lin et al. Science 349, 1529 (2015)). Pyrosealed POCO graphite flow plates with serpentine flow patterns were used for both electrodes. […] A sheet of pretreated NAFION® 212 membrane served as the ion-selective membrane between the carbon electrodes. Pretreatment of the NAFION® 212 membrane was performed by first heating it at 80° C. in de-ionized water for 20 minutes and then soaking in 5% hydrogen peroxide solution at room temperature for 35 minutes. These pre-treated membranes were stored in 0.1 M KOH solution at room temperature. The outer portion of the space between the electrodes was gasketed by Teflon sheets with the area over the electrodes cut out. Torque applied during cell assembly was 90 lb-in on each of 8 bolts. The electrolytes were fed into the cell through PFA tubing, at a rate <60 ml/min controlled by Cole-Parmer Micropump gear pumps. The cell was run inside a nitrogen-filled glove box with an O2 partial pressure of about 1 to 2 ppm. Cell polarization measurements, impedance spectroscopy, and charge-discharge cycling were performed using a Biologic VSP 300 potentiostat. The posolyte volume and composition when assembled was 30 mL of 0.22 M potassium ferrocyanide, 0.02 M potassium ferricyanide and 1 M KOH. The capacity-limiting negolyte was prepared by dissolving 1.2 mmoles of 2,6-DBEAQ (0.5 g) in its oxidized form in 1.2 M KOH solution (6 mL) resulting a 0.2 molar 2,6-DBEAQ solution.
For a full cell study, the electrolytes were assembled in the fully discharged state, deaerated and brought into a nitrogen-filled glovebox. The oxygen level was maintained at <2 ppm during cycling. Galvanostatic cycling was performed at ±0.1 A/cm^2 at room temperature, with voltage limits of 0.6 and 1.4 V, controlled by a Gamry 30K Booster potentiostat.
The pH of both sides was adjusted to 9 by adding a trace of KOH.

[2] = Cyclic voltammetry on glassy carbon electrode; format: physicochemical; details: difference in CV-obtained redox potentials between DBEAQ and potassium ferri/ferrocyanide
Description: Glassy carbon was used as the working electrode for all three-electrode CV tests. RDE experiments were conducted using a Pine Instruments Modulated Speed Rotator AFMSRCE equipped with a 5 mm diameter glassy carbon working electrode, a Ag/AgCl reference electrode (BASi, pre-soaked in 3 M NaCl solution), and a graphite counter electrode. The electrode was rotated at a specific speed while the voltage was linearly swept from −0.4 to −0.11 V vs. Ag/AgCl (FIG. 4A). […].
A second CV experiment was performed in which 2,6-DBEAQ was dissolved in pH 14 KOH solution at a concentration of 2 mM. CV measurements were plotted in FIG. 4C. The standard equilibrium potential was determined to be −0.49 V vs. SHE. The separation between the peaks in the CV curves was 42 mV, indicating fairly rapid and reversible electrochemical reactions at the surface of the electrodes.

With `O=C1c2ccc(O)cc2C(=O)c2ccc(O)cc21` [2,6-DHAQ, 2,6-dihydroxyanthraquinone] the “Cell Voltage” value [1] was 1.20 V.

For `O=C(O)CCCOc1cccc2c1C(=O)c1c(OCCCC(=O)O)cccc1C2=O` [1,8-DBEAQ], the “Cell Voltage” value [2] was 1.01 V.

For `O=C(O)CCCOc1ccc2c(c1OCCCC(=O)O)C(=O)c1ccccc1C2=O` [1,2-DBEAQ], the “Cell Voltage” value [2] was 1.04 V.

In the case of `O=C([O-])CCCOc1ccc2c(c1)C(=O)c1ccc(OCCCC(=O)[O-])cc1C2=O.[K+].[K+]` [2,6-DBEAQ, 4,4′-((9,10-anthraquinone-2,6-diyl)dioxy)dibutyric acid], the current efficiency ([1]; 0.1 M negolyte, pH 14, 4-day galvanostatic cycling) is reported as about 99.94%, the open-circuit voltage ([1]; 0.2 molar negolyte, 1 M KOH, NAFION® 212, 50% state of charge) is reported as 1.02 V and the “open-circuit voltage (OCV)” value ([1]; 0.5 M, pH 12, 10% SOC) is reported as 0.97 V. The “open-circuit voltage (OCV)” value ([1]; 0.5 M, pH 12, 50% SOC) was 1.05 V, the “open-circuit voltage (OCV)” value ([1]; 0.5 M, pH 12, 100% SOC) was 1.12 V and the “peak galvanic power density” value ([1]; 0.5 M, pH 12, 100% SOC) was 0.24 W/cm^2. For the same molecule, the “total loss over testing period” value ([1]; 6-day testing period, full cell) was under 0.5%, the “Cell Voltage” value [1] was 1.05 V and the capacity fade rate ([1]; parallel test, potentiostatic cycle after every 20 galvanostatic cycles) was 0.04 %/day.

In the case of `O=C1c2ccc(OCCCP(=O)(O)O)cc2C(=O)c2ccc(OCCCP(=O)(O)O)cc21` [DPPEAQ, (((9,10-dioxo-9,10-dihydroanthracene-2,6-diyl)bis(oxy))bis(propane-3,1-diyl))bis(phosphonic acid)], the discharge capacity fade ([1]; 0.1 M in 1 M KCl, pH 9, 16 cycles (9.5 hours)) is reported as “did not fade”, the “current efficiency after the first cycle” value ([1]; 0.1 M in 1 M KCl, pH 9, ±20 mA/cm^2, 16 cycles) is reported as “exceeded 99%” and the open-circuit potential ([1]; 0.5 M, pH 9, 10% SOC) is reported as 0.95 V. The peak power density ([1]; 0.5 M, pH 9, 10% SOC) was 0.073 W cm^−, the OCV ([1]; 0.5 M, pH 9, 50% SOC) was “approximately 1.02 V” and the open-circuit potential ([1]; 0.5 M, pH 9, 90% SOC) was 1.05 V. The peak power density ([1]; 0.5 M, pH 9, 90% SOC) was 0.160 W cm^−, the “average Coulombic efficiency” value ([1]; 0.5 M, pH 9, 480 cycles) was “greater than 99%” and the capacity fade rate ([1]; 0.5 M, pH 9, 480 cycles) was 0.00036 %/cycle. For the same molecule, the average capacity retention ([1]; 0.5 M, pH 9, 480 cycles, 12.3 days, 100 mA cm^−2) was 100 %/cycle and the capacity fade rate ([1]; 0.5 M, pH 9, 12.3 days) was 0.014 %/day.
